Experimental data as given in PubChem BioAssay AID504523 (Broad Institute, 2011).
Screen size: about 340,000 compounds; about 490 (0.14%) were called active. The inconclusive results got no clear call from the source; some entries with a clear call stand among them for comparison. Cut-off read from the data, not from the text of the source: active = inhibition above about 12%; inconclusive = no clear call, values can overlap the other calls; inactive = below about 7.3%.

Chains of the proteins cited; added tags and fusions are not shown.
UniProt Q14145, whole entry, looked up: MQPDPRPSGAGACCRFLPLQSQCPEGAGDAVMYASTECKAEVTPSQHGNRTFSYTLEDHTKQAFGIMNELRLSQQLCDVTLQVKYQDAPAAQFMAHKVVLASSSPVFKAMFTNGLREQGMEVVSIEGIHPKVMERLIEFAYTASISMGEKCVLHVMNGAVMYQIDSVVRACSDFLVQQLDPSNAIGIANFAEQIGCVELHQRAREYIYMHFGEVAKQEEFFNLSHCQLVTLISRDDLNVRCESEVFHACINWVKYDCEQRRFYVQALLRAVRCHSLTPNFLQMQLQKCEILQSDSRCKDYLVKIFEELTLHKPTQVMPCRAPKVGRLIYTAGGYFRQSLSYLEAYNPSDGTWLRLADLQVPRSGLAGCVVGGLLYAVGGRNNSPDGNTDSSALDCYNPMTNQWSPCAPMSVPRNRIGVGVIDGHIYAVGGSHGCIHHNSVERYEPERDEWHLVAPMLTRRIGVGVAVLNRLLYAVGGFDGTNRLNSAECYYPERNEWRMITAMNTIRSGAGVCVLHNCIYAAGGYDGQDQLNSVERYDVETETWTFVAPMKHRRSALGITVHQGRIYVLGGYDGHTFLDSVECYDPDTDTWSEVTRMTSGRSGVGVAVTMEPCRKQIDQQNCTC

Target: Kelch-like ECH-associated protein 1 (Homo sapiens) (UniProt Q14145)
Experiment: disruptors of Keap1 binding to Nrf2 – biochemical, fluorescence polarization, single point, primary screen (AID 504523);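 note: human Keap1 Kelch domain with fluorescein labeled Nrf2 9mer peptide probe; 0% = neutral control wells and 100% = peptide positive control; higher means more block of Keap1 binding to Nrf2 peptide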
Settings: Keap1 Kelch-Nrf2 peptide fluorescence polarization, 1536-well; at 9.4 µM; hits give high values

Structure (SMILES)	inhibition
O=C(NCCc1cccnc1)C1CCC(=O)N(CCc2cccc(F)c2)C1 (stereo not given)	inconclusive: 6.82%
Cn1c(=O)[nH]c(NC2CCCCC2)c(N=O)c1=O	inconclusive: 8.07%
CCOC(=O)C1=C(C)NC(C)=C(C(=O)OCC)C1c1ccc([N+](=O)[O-])s1	active: 38.6%
N#CC1=C2SCN(Cc3ccccc3)CN2C(=O)CC1c1ccccc1F (stereo not given)	inconclusive: 11.7%
O=C(Nc1cccc(S(=O)(=O)N2CCCCC2)c1)c1ccc(S(=O)(=O)C(F)F)cc1	inactive: 1.43%
Oc1ccccc1/C=N/[n+]1ccccc1	inactive: -3.2%
Cc1ccc2[nH]cc(CCNC(=O)c3ccco3)c2c1	inconclusive: 7.66%
COc1cccc(CNC(=O)Cn2nc(C)c3c(C)n(-c4ccc(C)cc4)nc3c2=O)c1OC	inconclusive: 9.27%
CC1=Nc2ccccc2/C1=C/c1c(N)n2c(S(=O)(=O)CC(C)C)nsc2nc1=O	inconclusive: 6.89%
CCN(CCO)Cc1csc2c(Br)cccc12	inconclusive: 6.91%
COc1ccc(OC)c(S(=O)(=O)Nc2ccc(F)cc2)c1	active: 12.3%
O=C(COC(=O)c1ccc(F)cc1F)Nc1cc(S(=O)(=O)N2CCOCC2)ccc1Cl	inconclusive: 11.2%
CC1=C(C(=O)N(C)C)C(c2cccs2)NC(=O)N1 (stereo not given)	inconclusive: 2.94%
CCOC(=O)c1cc2c(=O)n3ccccc3nc2n(C(C)C)c1=NC(=O)c1ccncc1	inactive: -4.07%
CC(=O)Nc1ccc(S(=O)(=O)NCCc2cc3ccc(C)c(C)c3[nH]c2=O)cc1	inconclusive: 9.29%
CCOC(=O)c1ccc2ncc(C(=O)OCC)c(NCCN(C)C)c2c1	active: 13.9%
COc1cccc(/C=C/C(=O)OCC(=O)NC(=O)NC2CCCC2)c1	active: 35.6%
CCOC(=O)c1cc2c(ccn2C)n1CC(=O)N(Cc1ccccc1)c1ccccc1	inactive: -2.96%
CC(C)NC(=O)CNc1ccc(C(F)(F)F)cc1[N+](=O)[O-]	inconclusive: -3.49%
CCN1CC=C2C(C#N)=C(N)C(C#N)(C#N)C(c3cc(Cl)ccc3Cl)C2C1 (stereo not given)	inconclusive: 12%
CNC(=O)CCn1nc(-c2ccc(Cl)cc2)c2ccccc2c1=O	inconclusive: 8.19%
O=C1CCN(CC2CCCCC2)C=C1C(=O)c1ccccc1	inactive: 1.7%
CCN1CCCC1CNS(=O)(=O)c1c(C)cc(C)cc1C (stereo not given)	inconclusive: 3.98%
CCc1ccc(S(=O)(=O)NCc2cn3cccc(C)c3n2)s1	inconclusive: 7.25%
O=C(NNc1ccc(C(F)(F)F)cc1[N+](=O)[O-])c1ccc(NS(=O)(=O)c2ccc(F)cc2)cc1	inconclusive: 6.08%

Among those listed so far, these contain two or more sulfur atoms:
Structure (SMILES)	inhibition
O=C(Nc1cccc(S(=O)(=O)N2CCCCC2)c1)c1ccc(S(=O)(=O)C(F)F)cc1	inactive: 1.43%
CC1=Nc2ccccc2/C1=C/c1c(N)n2c(S(=O)(=O)CC(C)C)nsc2nc1=O	inconclusive: 6.89%
CCc1ccc(S(=O)(=O)NCc2cn3cccc(C)c3n2)s1	inconclusive: 7.25%
